Test results as given in doi:10.1101/466946.
Results are given in words; binding and its absence hold for the method and conditions named. In cells and extracts the contact can be indirect. A result given as binding can be weak or reduced; the word gives no strength.

Protein sequences, listed by entry. Tags and fused reporters are not part of them. Lines headed by an entry give the natural chain unless they say otherwise; changes in a name come on top.
UniProt Q96B97: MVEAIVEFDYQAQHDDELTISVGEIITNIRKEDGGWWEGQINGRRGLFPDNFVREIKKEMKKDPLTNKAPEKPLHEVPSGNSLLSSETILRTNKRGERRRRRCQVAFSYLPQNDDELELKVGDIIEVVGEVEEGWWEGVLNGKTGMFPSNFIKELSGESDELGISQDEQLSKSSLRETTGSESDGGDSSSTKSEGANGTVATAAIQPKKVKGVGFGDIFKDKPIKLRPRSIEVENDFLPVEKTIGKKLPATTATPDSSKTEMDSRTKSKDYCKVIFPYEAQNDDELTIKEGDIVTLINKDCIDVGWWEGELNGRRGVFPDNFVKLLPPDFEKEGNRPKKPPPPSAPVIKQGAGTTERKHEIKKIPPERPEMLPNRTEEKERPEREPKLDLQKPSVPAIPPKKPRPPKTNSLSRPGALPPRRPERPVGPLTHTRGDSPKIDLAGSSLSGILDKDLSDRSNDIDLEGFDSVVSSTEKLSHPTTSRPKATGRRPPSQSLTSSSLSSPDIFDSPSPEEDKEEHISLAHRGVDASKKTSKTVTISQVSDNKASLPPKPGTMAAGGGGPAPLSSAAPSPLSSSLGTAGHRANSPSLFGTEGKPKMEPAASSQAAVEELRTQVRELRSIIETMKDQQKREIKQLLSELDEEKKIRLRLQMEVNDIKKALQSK
UniProt Q9GZT9: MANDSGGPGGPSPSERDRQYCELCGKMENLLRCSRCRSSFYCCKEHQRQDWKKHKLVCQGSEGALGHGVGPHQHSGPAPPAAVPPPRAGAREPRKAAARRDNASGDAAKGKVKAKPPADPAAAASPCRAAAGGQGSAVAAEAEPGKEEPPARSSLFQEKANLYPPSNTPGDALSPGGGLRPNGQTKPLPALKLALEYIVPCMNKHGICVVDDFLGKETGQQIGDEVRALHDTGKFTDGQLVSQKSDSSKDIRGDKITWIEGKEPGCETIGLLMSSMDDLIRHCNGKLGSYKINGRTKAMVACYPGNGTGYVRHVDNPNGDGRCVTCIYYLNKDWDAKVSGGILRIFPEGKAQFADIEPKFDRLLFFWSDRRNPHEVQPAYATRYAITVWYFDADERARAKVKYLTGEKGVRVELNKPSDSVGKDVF

Experiments:
[1] = target: FLAG-tagged CIN85 lacking SH3B (UniProt Q96B97); test: co-IP
[2] = target: FLAG-tagged CIN85 lacking SH3C (UniProt Q96B97); test: co-IP

- binding [1]: binds
- binding [2]: binds
Substance: V5-tagged wild-type PHD2 (from UniProt Q9GZT9 1-426) (enzyme)
